Reference: PubChem BioAssay AID1508588 (Peter MacCallum Cancer Centre, 2020)
Shown is one part, drawn at random, of about 18,000 deposited reagents. 790 of all reagents (4.4%) were called active. 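Calls rest on a combination of fold-change classes in drug and vehicle arms, not all shown here.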

Assay: 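Knock-downs boosting vemurafenib effects on melanoma cell growth or lactate release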 (primary screen)
Cells: human WM266.4 melanoma cells (BRAF V600 mutant)
Reagents: siRNA pool against human genes, 40 nM
Duration: 96 h from transfection to read-out
Conditions: vemurafenib 300 nM (about IC25), added 48 h after transfection, for 48 h; comparison arm got DMSO vehicle only
Measurement: 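Ratios to non-targeting siRNA for cell gain, counted as DAPI nuclei after minus before drug and averaged over two replicates, and for absorbance-read medium lactate per cell; both binned into fold-change classes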
Reading the numbers: cell gain with vemurafenib: higher = more cell gain than with non-targeting siRNA; lactate per cell with vemurafenib: higher = more lactate made per cell
Call rule: 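Enhancement is called by pairing each knock-down's vehicle-arm and drug-arm fold-change classes for viability or glycolysis; which class combinations qualify is not given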
Meaning of the calls: active = enhances vemurafenib effect; inactive = no enhancement seen

TMIE [SID152149982] | cell gain with vemurafenib = 0.56; lactate per cell with vemurafenib = 0.55; outcome = inactive
DNM1 [SID152148802] | cell gain with vemurafenib = 0.69; lactate per cell with vemurafenib = 1.29; outcome = inactive
EIF4EBP2 [SID135623570] | cell gain with vemurafenib = 0.67; lactate per cell with vemurafenib = 0.9; outcome = inactive
FAM89A [SID135624661] | cell gain with vemurafenib = 0.13; lactate per cell with vemurafenib = 2.15; outcome = inactive
CCNI2 [SID135625497] | cell gain with vemurafenib = 0.41; lactate per cell with vemurafenib = 1.21; outcome = inactive
SDF2 [SID134317727] | cell gain with vemurafenib = 0.71; lactate per cell with vemurafenib = 0.6; outcome = inactive
LYG1 [SID152156389] | cell gain with vemurafenib = 0.57; lactate per cell with vemurafenib = 0.38; outcome = inactive
TXNDC15 [SID152154598] | cell gain with vemurafenib = 0.29; lactate per cell with vemurafenib = 2.04; outcome = inactive
BARD1 [SID152149390] | cell gain with vemurafenib = 1.08; lactate per cell with vemurafenib = 0.69; outcome = inactive
PPP1R3F [SID152154714] | cell gain with vemurafenib = 1.08; lactate per cell with vemurafenib = 0.65; outcome = inactive
SYPL2 [SID135625149] | cell gain with vemurafenib = 0.86; lactate per cell with vemurafenib = 1.49; outcome = inactive
ARL11 [SID152151406] | cell gain with vemurafenib = 0.65; lactate per cell with vemurafenib = 0.82; outcome = inactive
ARHGAP19 [SID152152163] | cell gain with vemurafenib = 0.55; lactate per cell with vemurafenib = 1.17; outcome = inactive
DTWD1 [SID152155467] | cell gain with vemurafenib = 0.45; lactate per cell with vemurafenib = 1.04; outcome = inactive
SPZ1 [SID134319865] | cell gain with vemurafenib = 0.66; lactate per cell with vemurafenib = 1.94; outcome = inactive
COL21A1 [SID152148222] | cell gain with vemurafenib = 0.73; lactate per cell with vemurafenib = 1.46; outcome = inactive
A2M [SID152153859] | cell gain with vemurafenib = 0.35; lactate per cell with vemurafenib = 1.75; outcome = inactive
RDH5 [SID152155593] | cell gain with vemurafenib = 0.7; lactate per cell with vemurafenib = 0.86; outcome = inactive
SLC27A4 [SID135621391] | cell gain with vemurafenib = 0.69; lactate per cell with vemurafenib = 0.9; outcome = inactive
KCNK2 [SID152152205] | cell gain with vemurafenib = 0.56; lactate per cell with vemurafenib = 1.45; outcome = inactive
RBBP9 [SID135623363] | cell gain with vemurafenib = 0.41; lactate per cell with vemurafenib = 1; outcome = inactive
FBXO4 [SID152148334] | cell gain with vemurafenib = 0.63; lactate per cell with vemurafenib = 0.66; outcome = inactive
CLDN16 [SID152154492] | cell gain with vemurafenib = 0.82; lactate per cell with vemurafenib = 0.5; outcome = inactive
PGM2 [SID152149451] | cell gain with vemurafenib = 0.61; lactate per cell with vemurafenib = 0.84; outcome = inactive
ARHGAP11A [SID134324729] | cell gain with vemurafenib = 0.45; lactate per cell with vemurafenib = 1.87; outcome = inactive
LSM8 [SID152155204] | cell gain with vemurafenib = 0.63; lactate per cell with vemurafenib = 1.64; outcome = inactive
POLA2 [SID134320039] | cell gain with vemurafenib = 0.01; lactate per cell with vemurafenib = 2.37; outcome = inactive
THRA [SID135620679] | cell gain with vemurafenib = 1.02; lactate per cell with vemurafenib = 0.6; outcome = inactive
MC3R [SID135621048] | cell gain with vemurafenib = 0.34; lactate per cell with vemurafenib = 0.9; outcome = inactive
PHKG1 [SID152147540] | cell gain with vemurafenib = 0.53; lactate per cell with vemurafenib = 0.64; outcome = active
ANO9 [SID135624594] | cell gain with vemurafenib = 0.51; lactate per cell with vemurafenib = 1; outcome = inactive
IL6 [SID152148716] | cell gain with vemurafenib = 0.84; lactate per cell with vemurafenib = 0.59; outcome = inactive
SAE1 [SID134311772] | cell gain with vemurafenib = 0.72; lactate per cell with vemurafenib = 0.69; outcome = inactive
SH3PXD2A [SID152151081] | cell gain with vemurafenib = 0.1; lactate per cell with vemurafenib = 1.54; outcome = inactive
CLEC4A [SID152147359] | cell gain with vemurafenib = 0.11; lactate per cell with vemurafenib = 0.86; outcome = inactive
OR5K4 [SID134329949] | cell gain with vemurafenib = 0.21; lactate per cell with vemurafenib = 1.33; outcome = inactive
SEMA5A [SID135623756] | cell gain with vemurafenib = 0.21; lactate per cell with vemurafenib = 1.4; outcome = inactive
CCDC69 [SID152151541] | cell gain with vemurafenib = 0.75; lactate per cell with vemurafenib = 0.64; outcome = inactive
SMC2 [SID152153976] | cell gain with vemurafenib = 0.36; lactate per cell with vemurafenib = 1.18; outcome = inactive
NUBP2 [SID134310580] | cell gain with vemurafenib = 0.54; lactate per cell with vemurafenib = 1.31; outcome = inactive

Just “cell gain with vemurafenib”, for 6 of the entries above:
LSM8 [SID152155204]: 0.63
POLA2 [SID134320039]: 0.01
THRA [SID135620679]: 1.02
MC3R [SID135621048]: 0.34
PHKG1 [SID152147540]: 0.53
ANO9 [SID135624594]: 0.51
